No constants are given. Whether binding was seen depends on the method and setting. Some binding calls cover weakened binding; strength is not graded here. Values belong to the binder of their own block, whether it stands above or below them.
Columns and labels:
[1] = target: T1, human oxidized LDL/β2GPI complex (human) (UniProt P02749+P04114); experiment: competitive inhibition ELISA with free antigen
[2] = target: T1, human oxidized LDL/β2GPI complex (human); experiment: ELISA on complex coated at 1 µg/ml, anti-mouse IgG-HRP
[3] = target: T1, human oxidized LDL/β2GPI complex (human); experiment: ELISA, binding to immobilized oxidized LDL/β2GPI complex
[4] = target: T1, human oxidized LDL/β2GPI complex (human); experiment: competitive inhibition ELISA with free antigen (FIG. 12)
[5] = target: T1, human oxidized LDL/β2GPI complex (human); experiment: competitive inhibition ELISA, free oxidized LDL/β2GPI complex as competitor
[6] = target: T1, human oxidized LDL/β2GPI complex (human); experiment: competitive inhibition ELISA, free oxidized LDL/β2GPI complex in solution against immobilized oxidized LDL/β2GPI
[7] = target: human LDL oxidatively modified by copper sulfate (human) (UniProt P04114); experiment: ELISA (as described in the Examples)
[8] = target: human LDL oxidatively modified by copper sulfate (human) (UniProt P04114); experiment: ELISA on immobilized Cu-oxidized human LDL, anti-mouse IgM-HRP

Protein sequences, listed by entry. Tags and fused reporters are not part of them. Lines headed by an entry give the natural chain unless they say otherwise; changes in a name come on top. Residues count along the entry.
UniProt P02749: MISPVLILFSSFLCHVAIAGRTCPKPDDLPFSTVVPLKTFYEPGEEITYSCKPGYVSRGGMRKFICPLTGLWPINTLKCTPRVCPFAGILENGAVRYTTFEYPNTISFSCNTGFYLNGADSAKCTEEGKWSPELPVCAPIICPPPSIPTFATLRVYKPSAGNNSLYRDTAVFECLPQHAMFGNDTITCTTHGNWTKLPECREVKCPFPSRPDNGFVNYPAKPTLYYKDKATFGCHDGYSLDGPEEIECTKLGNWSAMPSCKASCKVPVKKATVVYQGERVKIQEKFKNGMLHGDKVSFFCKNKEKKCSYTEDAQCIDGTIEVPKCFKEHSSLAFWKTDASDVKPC
UniProt P04114, residues 28-4563: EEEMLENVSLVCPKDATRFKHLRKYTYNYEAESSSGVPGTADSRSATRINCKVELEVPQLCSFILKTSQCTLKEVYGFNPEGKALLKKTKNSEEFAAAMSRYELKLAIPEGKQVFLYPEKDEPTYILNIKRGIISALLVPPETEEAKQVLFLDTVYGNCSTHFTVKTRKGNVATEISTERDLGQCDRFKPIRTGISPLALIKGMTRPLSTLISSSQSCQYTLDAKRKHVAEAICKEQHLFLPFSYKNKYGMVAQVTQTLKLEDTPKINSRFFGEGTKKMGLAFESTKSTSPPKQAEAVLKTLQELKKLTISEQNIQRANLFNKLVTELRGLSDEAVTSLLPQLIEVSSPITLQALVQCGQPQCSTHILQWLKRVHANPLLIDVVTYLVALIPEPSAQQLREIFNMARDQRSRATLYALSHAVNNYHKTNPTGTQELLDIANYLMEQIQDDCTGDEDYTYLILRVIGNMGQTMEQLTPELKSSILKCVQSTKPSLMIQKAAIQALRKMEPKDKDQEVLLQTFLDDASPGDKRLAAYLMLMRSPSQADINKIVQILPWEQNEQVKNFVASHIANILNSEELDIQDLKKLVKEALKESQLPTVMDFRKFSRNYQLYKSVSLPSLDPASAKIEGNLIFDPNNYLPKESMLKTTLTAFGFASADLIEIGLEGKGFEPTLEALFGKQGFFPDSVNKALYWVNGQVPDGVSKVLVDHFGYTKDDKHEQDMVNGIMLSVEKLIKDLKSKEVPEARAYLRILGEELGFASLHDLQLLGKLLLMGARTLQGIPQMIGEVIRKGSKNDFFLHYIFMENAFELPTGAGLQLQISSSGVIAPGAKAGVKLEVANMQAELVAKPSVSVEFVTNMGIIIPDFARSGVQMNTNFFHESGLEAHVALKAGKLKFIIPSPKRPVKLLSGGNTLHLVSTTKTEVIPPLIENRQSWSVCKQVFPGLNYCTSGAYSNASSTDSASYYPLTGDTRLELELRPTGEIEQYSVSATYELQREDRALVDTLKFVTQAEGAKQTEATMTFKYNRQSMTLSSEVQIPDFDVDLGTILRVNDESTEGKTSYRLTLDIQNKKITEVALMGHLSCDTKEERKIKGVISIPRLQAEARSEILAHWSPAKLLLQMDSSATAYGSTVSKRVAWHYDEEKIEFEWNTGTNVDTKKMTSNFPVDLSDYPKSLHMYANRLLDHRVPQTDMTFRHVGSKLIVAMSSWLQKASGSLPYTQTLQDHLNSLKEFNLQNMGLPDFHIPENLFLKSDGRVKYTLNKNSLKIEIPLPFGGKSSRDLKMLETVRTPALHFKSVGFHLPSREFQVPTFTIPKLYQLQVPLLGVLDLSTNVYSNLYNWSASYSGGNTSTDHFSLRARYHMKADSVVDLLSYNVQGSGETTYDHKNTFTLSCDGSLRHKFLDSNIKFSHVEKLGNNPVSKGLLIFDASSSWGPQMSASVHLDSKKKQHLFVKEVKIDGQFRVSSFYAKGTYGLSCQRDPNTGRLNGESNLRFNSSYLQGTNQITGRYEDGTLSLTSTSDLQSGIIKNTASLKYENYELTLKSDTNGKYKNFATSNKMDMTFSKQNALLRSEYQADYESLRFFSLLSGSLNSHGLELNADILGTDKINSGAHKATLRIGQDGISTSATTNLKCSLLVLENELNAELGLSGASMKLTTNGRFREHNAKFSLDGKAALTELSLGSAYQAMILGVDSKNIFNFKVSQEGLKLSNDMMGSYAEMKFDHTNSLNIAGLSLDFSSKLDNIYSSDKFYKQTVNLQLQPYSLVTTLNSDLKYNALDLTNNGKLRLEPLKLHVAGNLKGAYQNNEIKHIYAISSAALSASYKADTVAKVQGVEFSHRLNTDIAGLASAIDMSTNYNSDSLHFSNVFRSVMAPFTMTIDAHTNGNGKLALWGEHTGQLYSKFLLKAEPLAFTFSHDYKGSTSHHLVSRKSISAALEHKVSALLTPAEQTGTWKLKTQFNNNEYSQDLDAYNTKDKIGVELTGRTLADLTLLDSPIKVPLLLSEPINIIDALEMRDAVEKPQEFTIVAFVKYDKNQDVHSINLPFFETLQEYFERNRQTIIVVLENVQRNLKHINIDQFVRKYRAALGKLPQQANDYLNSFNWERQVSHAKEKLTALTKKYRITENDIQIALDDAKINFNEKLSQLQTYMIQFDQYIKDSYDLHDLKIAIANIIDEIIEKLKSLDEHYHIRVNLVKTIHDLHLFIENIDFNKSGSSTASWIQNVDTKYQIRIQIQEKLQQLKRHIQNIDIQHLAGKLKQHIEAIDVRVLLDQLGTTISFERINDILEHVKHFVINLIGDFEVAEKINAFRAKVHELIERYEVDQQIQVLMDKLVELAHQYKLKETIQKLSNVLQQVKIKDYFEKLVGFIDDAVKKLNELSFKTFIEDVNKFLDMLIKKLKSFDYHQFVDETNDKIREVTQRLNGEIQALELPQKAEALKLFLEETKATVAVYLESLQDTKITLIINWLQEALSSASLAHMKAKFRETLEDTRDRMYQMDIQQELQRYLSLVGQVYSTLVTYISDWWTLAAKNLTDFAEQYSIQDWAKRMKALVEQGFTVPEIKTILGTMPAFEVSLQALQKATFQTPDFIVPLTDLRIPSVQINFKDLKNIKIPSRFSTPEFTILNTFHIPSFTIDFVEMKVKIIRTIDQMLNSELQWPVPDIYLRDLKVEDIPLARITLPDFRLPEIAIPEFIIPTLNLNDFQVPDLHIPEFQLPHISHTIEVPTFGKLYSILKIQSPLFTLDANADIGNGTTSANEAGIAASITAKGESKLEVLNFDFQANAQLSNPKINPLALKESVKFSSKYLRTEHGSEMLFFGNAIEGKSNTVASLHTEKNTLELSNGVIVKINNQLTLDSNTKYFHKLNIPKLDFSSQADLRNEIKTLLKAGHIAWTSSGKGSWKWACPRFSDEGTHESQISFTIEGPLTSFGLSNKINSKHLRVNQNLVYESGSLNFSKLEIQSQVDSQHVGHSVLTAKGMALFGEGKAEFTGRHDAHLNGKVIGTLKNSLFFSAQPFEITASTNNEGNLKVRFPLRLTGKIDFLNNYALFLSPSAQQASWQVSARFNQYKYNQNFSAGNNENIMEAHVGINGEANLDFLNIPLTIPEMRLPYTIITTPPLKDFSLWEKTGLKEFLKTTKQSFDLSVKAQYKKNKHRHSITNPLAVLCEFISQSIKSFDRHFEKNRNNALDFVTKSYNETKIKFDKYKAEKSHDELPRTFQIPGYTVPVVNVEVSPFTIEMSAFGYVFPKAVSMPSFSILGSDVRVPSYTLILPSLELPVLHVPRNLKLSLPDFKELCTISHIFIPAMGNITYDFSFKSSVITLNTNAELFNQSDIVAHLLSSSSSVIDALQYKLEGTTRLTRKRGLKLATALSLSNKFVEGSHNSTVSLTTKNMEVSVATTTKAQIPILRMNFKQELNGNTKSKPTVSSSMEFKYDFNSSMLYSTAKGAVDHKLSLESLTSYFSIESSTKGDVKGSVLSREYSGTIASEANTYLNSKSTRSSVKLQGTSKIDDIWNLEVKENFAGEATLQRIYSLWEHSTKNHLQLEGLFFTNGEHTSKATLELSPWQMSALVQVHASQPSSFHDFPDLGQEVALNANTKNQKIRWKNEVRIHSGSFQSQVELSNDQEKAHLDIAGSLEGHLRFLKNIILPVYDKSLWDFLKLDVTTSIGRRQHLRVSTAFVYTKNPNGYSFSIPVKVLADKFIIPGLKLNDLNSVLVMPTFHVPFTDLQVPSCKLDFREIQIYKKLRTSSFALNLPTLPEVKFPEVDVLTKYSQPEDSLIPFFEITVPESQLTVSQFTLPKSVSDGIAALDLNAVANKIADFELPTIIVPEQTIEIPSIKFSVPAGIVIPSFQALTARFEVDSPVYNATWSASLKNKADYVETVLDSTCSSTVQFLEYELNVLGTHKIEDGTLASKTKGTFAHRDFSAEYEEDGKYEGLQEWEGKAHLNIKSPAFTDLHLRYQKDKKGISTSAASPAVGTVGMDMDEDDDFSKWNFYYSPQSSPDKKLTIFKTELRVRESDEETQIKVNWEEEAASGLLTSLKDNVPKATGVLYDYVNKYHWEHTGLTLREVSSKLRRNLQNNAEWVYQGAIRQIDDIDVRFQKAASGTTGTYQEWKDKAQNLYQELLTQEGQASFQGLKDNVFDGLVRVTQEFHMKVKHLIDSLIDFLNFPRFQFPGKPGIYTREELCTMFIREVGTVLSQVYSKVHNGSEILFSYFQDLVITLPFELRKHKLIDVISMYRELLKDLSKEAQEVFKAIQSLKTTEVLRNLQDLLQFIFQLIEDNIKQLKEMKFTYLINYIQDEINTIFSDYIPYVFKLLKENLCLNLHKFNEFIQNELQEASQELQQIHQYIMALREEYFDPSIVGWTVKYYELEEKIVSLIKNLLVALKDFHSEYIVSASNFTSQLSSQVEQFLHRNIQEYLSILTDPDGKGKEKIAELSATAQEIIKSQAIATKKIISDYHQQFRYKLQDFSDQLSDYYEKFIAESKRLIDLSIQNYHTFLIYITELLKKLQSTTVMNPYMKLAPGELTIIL

binding [1]: binds
binding [2]: binds
binding [3]: binds
binding [4]: binds
binding [5]: binds
binding [6]: binds
B1: antibody 3H3 (antibody, V domains shown)
VH: EVQLVESGGGLVKPGGSLKLSCAASGFTFSSYAMSWARQTPEKRLEWVATISSGGSYTYYPDSVRGRFTISRDNAKNTLYLQMCSLRSEDTAMYYCARFDGYYAMDYWGQGTSVTVSS
VL: DIVMTQSHKFMSTSVGDRVSITCKASQDVGSAVAWYQQKPGQSPKLLIYWASTRHTGVPDRFTGSGSGTDFTLTISSLQSEDLADYFCQQYSSYPLTFGSGTKLEIK

binding [7]: binds
binding [8]: binds
B2: CL15-203 (antibody, IgM, V domains shown)
VH: QVQLKESGPGLVAPSQSLSITCTVSGFSLTDYGVSWIRQPPGKGLEWLGVIWGGGSTYYNSALKSRLSISKDNSKSQVFLKMNSLQTDDTAMYYCAKHGRMGRKNYFDYWGQGTTLTVSS
VL: DVQITQSPSYLAASPGETITINCRASKSISKYLAWYQEKPGKTNKLLIYSGSTLQSGIPSRFSGSGSGTDFTLTISSLEPEDFAMYYCQQHNEYPYTFGGGTKLEIK

binding [7]: binds
binding [8]: binds
B3: CL19-107 (antibody, IgM, V domains shown)
VH: EVQLQQSGPELVKPGASVKISCKTSGYTFTEYTMHWVKQSHGKSLEWIGGINPNNGGTSYNQKFKGKATLTVDKSSSTAYMELRSLTSEDSAVYYCARSGDYGTGAWFAYWGQGTLVTVSA
VL: DIVMSQSPSSLAVSAGEKVTMSCKSSQSLLNSRTRKNYLAWYQQKPGQSPKLLIYWASTRESGVPDRFTGSGSGTDFTLTISSVQAEDLAVYYCKQSYNLFTFGSGTKLEIK

— patent US20110182817A1 (NATIONAL UNIVERSITY CORPORATION OKAYAMA UNIVERSITY, published 2011)
